No constants are given. Whether binding was seen depends on the method and setting. Binding seen in cells or lysates may run through a third protein. These calls come from enrichment with a bait or labelling near it, and not all partners need be listed. Tags and fused reporters may be left off the sequences shown.
Target: T1, GrxD^Venus (full-length A. fumigatus monothiol glutaredoxin GrxD, C-terminally tagged with Venus) (A. fumigatus) (UniProt Q4X024)
T1 sequence: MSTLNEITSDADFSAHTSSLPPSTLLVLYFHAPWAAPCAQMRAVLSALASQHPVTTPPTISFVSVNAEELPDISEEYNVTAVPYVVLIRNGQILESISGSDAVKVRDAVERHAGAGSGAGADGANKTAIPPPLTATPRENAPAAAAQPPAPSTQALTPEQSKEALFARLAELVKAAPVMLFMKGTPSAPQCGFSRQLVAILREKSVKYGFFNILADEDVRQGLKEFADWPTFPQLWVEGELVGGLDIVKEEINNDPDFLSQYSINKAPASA
Experiment: affinity purification with mass spectrometry; GFP-Trap agarose beads on mycelial crude extracts of A. fumigatus PxylP:grxD^venus or PxylP:grxD^venusΔtrx grown at -Fe, 0.03 mM Fe or 5 mM Fe (22 h, 37°C, xylose-induced); wt extract as control; 4°C, 1 h; washes with up to 500 mM NaCl; nLC-MS/MS with label-free quantification

Chains of the proteins cited; added tags and fusions are not shown.
UniProt Q4WER3: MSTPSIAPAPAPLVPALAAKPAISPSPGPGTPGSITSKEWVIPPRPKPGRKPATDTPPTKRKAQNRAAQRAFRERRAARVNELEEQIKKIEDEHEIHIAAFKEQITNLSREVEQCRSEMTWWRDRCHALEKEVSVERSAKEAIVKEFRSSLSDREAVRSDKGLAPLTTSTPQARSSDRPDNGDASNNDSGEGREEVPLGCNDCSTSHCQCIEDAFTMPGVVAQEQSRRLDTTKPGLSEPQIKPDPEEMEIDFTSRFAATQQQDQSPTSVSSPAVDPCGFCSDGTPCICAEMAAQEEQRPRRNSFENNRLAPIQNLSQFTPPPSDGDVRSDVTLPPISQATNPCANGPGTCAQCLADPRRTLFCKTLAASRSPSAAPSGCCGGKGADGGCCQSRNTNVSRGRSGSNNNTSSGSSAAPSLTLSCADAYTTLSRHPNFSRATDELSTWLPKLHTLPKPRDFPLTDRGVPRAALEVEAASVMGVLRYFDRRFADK

Row | Substance | binding
1 | Adh1 (alcohol dehydrogenase) (from UniProt Q4WAE4) | binds
2 | Afu1g04660 (putative ribosomal protein L15) | binds
3 | Afu1g08840 (putative guanylate kinase) (from UniProt Q4WTL9) | binds
4 | Afu1g09170 (putative protein kinase activator) (from UniProt Q4WTI6) | binds
5 | Afu2g09100 (putative polyadenylation factor subunit) (from UniProt Q4X1Q9) | binds
6 | Afu2g11540 (putative ketoreductase) (from UniProt Q4X117) | binds
7 | Afu2g11740 (putative ATP-dependent peptidase) (from UniProt Q4X0Z7) | binds
8 | Afu3g04110 (putative snoRNA binding protein) (from UniProt Q4WEY6) | binds
9 | Afu4g10100 (putative methionine synthase reductase) | binds
10 | Afu4g14380 (putative glutathione S-transferase) (from UniProt Q4WQX8) | binds
11 | Afu5g01440 (putative peroxiredoxin) (from UniProt Q4WE17) | binds
12 | Afu5g04210 (putative ubiquinol-cytochrome C reductase complex core protein 2) | binds
13 | Afu5g12190 (putative transcription initiation factor subunit) (from UniProt Q4WVI2) | binds
14 | Afu7g03980 (putative translation initiation factor eIF3m) (from UniProt Q4WG69) | binds
15 | CodA (choline oxidase) (from UniProt Q4WCK6) | binds
16 | FlbA (developmental regulator) (from UniProt Q4X152) | binds
17 | HapX (iron responsive transcription factor) (from UniProt Q4WER3 1-491) | binds
18 | Mms19 (CIA machinery) (from UniProt Q4WC83) | binds
19 | Nbp35 (CIA machinery) (from UniProt Q4WZS2) | binds
20 | Nhp6 (non-histone chromosomal protein) (from UniProt Q4WY33) | binds
21 | Pmt1 (protein O-mannosyltransferase) (from UniProt Q4WWN0) | binds

Reference: PMC6762210
